Laboratory results: article doi:10.1101/2020.10.12.335091

Sequences of proteins named here, by UniProt entry; tags and fusion partners are left off. Residues count along the entry.
UniProt P20701, residues 26-1170: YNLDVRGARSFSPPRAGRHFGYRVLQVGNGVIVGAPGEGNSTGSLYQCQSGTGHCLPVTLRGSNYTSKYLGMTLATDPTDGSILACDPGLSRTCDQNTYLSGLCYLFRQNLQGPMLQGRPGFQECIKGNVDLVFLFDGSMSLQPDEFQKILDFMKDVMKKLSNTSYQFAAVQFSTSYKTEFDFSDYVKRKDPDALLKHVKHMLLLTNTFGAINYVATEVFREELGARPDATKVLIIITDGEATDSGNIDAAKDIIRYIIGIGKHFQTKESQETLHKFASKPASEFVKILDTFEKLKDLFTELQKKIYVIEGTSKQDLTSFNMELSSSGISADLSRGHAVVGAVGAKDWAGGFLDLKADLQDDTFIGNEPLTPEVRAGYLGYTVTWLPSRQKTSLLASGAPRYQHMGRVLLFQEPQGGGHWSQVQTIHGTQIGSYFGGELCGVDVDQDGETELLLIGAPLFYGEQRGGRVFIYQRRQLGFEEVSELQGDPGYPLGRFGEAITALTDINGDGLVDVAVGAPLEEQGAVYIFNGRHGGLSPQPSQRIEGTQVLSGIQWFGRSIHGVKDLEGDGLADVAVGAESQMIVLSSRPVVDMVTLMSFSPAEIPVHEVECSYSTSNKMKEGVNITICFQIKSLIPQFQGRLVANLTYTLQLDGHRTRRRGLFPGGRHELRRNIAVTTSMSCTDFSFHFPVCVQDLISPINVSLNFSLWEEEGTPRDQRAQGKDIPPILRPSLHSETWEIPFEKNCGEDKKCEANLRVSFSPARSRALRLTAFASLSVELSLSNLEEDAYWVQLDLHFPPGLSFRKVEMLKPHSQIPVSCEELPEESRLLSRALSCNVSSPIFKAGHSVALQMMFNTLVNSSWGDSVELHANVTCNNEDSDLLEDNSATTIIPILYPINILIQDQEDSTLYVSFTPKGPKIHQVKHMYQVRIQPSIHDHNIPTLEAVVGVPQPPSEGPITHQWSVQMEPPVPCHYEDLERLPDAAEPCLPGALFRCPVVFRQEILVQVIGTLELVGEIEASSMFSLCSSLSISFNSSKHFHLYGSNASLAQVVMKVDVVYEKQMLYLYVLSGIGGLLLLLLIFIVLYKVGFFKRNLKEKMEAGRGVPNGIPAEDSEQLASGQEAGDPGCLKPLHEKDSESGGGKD
UniProt P16234, residues 24-1089: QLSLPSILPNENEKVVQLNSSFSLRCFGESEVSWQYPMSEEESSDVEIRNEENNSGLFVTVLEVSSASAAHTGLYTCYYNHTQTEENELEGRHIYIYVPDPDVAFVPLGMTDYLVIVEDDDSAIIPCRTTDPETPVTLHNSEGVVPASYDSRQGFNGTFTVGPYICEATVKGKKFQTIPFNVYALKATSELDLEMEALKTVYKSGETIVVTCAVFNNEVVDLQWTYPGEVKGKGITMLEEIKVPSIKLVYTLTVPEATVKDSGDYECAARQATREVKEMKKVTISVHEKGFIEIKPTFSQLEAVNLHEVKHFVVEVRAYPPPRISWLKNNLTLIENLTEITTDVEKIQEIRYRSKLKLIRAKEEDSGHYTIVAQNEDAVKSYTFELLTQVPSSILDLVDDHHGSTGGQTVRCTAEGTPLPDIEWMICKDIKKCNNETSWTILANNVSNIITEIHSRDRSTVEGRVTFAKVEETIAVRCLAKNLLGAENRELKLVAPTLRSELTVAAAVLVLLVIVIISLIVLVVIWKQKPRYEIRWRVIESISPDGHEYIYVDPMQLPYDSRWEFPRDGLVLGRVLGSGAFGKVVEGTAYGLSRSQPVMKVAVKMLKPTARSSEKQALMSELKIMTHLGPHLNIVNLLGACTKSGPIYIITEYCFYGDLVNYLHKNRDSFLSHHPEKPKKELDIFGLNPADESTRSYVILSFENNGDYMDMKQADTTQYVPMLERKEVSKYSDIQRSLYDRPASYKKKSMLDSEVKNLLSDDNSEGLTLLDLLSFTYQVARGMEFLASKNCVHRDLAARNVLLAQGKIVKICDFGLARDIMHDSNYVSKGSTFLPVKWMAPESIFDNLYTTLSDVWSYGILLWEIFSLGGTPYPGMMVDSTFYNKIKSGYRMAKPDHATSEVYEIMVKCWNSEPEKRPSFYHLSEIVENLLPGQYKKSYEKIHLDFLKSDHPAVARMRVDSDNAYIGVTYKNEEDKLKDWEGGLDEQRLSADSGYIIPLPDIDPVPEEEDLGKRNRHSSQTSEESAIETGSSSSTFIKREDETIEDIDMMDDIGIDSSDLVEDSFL

Target: T1, Recombinant His-tagged Endocan (UniProt Q9NQ30)
T1 sequence: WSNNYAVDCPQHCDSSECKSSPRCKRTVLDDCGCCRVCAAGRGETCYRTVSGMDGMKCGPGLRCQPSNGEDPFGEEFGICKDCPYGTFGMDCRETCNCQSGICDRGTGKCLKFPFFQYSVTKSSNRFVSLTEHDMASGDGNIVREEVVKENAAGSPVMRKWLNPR
Assay: affinity purification with mass spectrometry

Row | binding | Substance
1 | no binding | CD11a integrin, endogenous in glioblastoma cells (from UniProt P20701 26-1170) (receptor)
2 | binds | PDGFRA receptor, endogenous in patient-derived glioblastoma cells (from UniProt P16234 24-1089)

These are yes or no findings as the source states them, for the method shown. Binding seen in cells or lysates may run through a third protein. These calls come from enrichment with a bait or labelling near it, and not all partners need be listed. A no says only that the protein was not detected with the bait. Sequences can lack the tags named with a protein.
